{"source": "patent CN115746133A", "binders": {"B1": {"name": "小鼠抗人CD47单克隆抗体1H10 (antibody, V domains shown)", "VH": "EVQLQQSGAELVRSGASVTLSCTASGFKIKDYYMNWVKQRPEQGLEWIGWIGPENGDTENGPKFQDKATMTANTSSNTAFLQLSSLTPEDTAFYYCNAGGRGGFPYWGQGTQVTVST", "VL": "DILLTQTPLSLPVSLGDQASFSCRSSQDIVHINGKTYLEWYLQKPGQSPKLLIYRVSNRFSGVPDRFSGSGSGTDFTLKISRVEAEDLGVYYCFQGSHVPRTFGGGTKLEIK"}}, "target": "食蟹猴CD47-his蛋白 (Acro biosystems, cat#CD7-C52H1) (cynomolgus monkey)", "assay": "capture ELISA, antibody captured by anti-mouse Fcγ, biotinylated cynomolgus CD47-his at 60 nM", "note": "These are yes or no findings as the source states them, for the method shown. Some binding calls cover weakened binding; strength is not graded here.", "data": [{"binder": "B1", "values": [{"measurement": "binding", "value": "binds"}]}]}
